The target in this assay is T1, TAT211 polypeptide (form in the assay not stated) (human) (UniProt O95436).
T1 sequence: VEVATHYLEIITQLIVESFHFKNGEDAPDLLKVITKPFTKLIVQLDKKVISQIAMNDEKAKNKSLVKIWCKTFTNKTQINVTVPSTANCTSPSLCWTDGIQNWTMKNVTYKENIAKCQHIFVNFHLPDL
The experiment in a line: ELISA on TAT211 coated plates. (ELISA stands for enzyme-linked immunosorbent assay.)

These are yes or no findings as the source states them, for the method shown. Some results given as binding are weak or reduced against the parent protein; the word gives no strength.

B1: murine monoclonal antibody 10H1 (antibody, V domains shown)
VH: EVMLVESGGGLVRPGGSLKVSCAASGFSFSDFAMSWVRRTPDKRLEWVATIGRVASHTYYPDSMKGRFTISRDNAKNTLYLQMNSLRSDDTAIYYCVRHRGFDVGHFDFWGQGTLLTVSA
VL: DILMTQTPLSLPVSLGDQASISCRSSETLVHSNGNTYLEWYLQKLGQPPKLLIYRVSNRFSGVPDRFSGSGSGTDFTLKISRLEAEDLGVYYCFQGSHNPLTFGAGTKVEIKR
notes: Murine hybridoma IgG; also called mu10H1; murine 10H1
For the molecule B1, the binding result is “binds”.

The values above are taken from patent US20220204640A1 (Genentech, published 2022).
